Results are given in words; binding and its absence hold for the method and conditions named. In cells and extracts the contact can be indirect. Some binding calls cover weakened binding; strength is not graded here. Tags and fused reporters may be left off the sequences shown.
Legend:
[1] = target: T1, ANGPTL3 fusion protein after purification (SEQ ID NO:19) (human) (UniProt Q9Y5C1); assay: co-expression, co-purification (Ni-NTA, size exclusion), SDS-PAGE
T1 sequence: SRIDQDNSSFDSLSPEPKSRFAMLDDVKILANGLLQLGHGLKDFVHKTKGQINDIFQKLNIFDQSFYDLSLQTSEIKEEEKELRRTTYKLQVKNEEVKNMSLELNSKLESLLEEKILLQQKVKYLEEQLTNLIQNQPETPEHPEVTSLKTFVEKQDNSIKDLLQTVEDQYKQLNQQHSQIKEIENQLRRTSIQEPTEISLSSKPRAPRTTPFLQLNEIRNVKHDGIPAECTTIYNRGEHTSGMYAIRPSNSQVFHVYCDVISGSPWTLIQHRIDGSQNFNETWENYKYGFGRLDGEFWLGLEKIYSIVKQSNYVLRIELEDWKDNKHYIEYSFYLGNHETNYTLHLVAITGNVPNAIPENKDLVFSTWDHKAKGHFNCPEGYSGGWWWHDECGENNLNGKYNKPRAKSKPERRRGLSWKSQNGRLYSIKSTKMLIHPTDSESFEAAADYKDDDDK

[2] = target: T1, ANGPTL3 fusion protein after purification (SEQ ID NO:19) (human); assay: co-purification (Ni-NTA by the His tag of the HSA-ANGPTL8 fusion, Superdex 200, PreScission cleavage, second Superdex 200), then SDS-PAGE on a 4-20% TG TGX gel stained with Coomassie

B1: ANGPTL8 fusion protein after purification and PreScission cleavage (SEQ ID NO:20) (ligand)
chain: APMGGPELAQHEELTLLFHGTLQLGQALNGVYRTTEGRLTKARNSLGLYGRTIELLGQEVSRGRDAAQELRASLLETQMEEDILQLQAEATAEVLGEVAQAQKVLRDSVQRLEVQLRSAWLGPAYREFEVLKAHADKQSHILWALTGHVQRQRREMVAQQHRLRQIQERLHTAALPA
Question: With B1 as the binder, how does the binding [1] read?
Answer: binds

Question: What about the binding [2] of the same binder?
Answer: binds
